From US20260137707A1, “METHODS OF MODULATING ATXN2 EXPRESSION” (University of Utah Research Foundation, priority 2022, published 2026) come the findings set out here.

The structures appear in SMILES notation. pIC50: −log10 of the molar value.

In this assay the test system is ATXN2-luc. The assay can be described thus: Secondary assays, Bright-Glo luciferase in H2 and S2 cells. The class given is cell-based. The conditions noted are these: read-out: Mean IC50. The protocol:
Compounds were plated at 2× concentrations in 25 μl in 384 well plates with each compound dose plated in triplicate. An equal volume of S2, H2, or SC cells (24,000 cells/well) suspended in phenol-red free Dulbecco's Modified Eagle Medium (DMEM) with 10% fetal bovine serum and 1× penicillin/streptomycin were added. Cells were grown 24 hrs then assayed first by using the CellTiter-Fluor reagent (20 μl) followed by the addition of Bright-Glo ([…]) luciferase assay, using a multimode plate reader (Beckman DT880). Values were reported as the mean±standard deviation (SD) with n=3. IC50s were determined by the Hill coefficient method using an online tool (https://www.aatbio.com/tools/ic50-calculator).
These 46 compounds were retested at 12 doses and a zero-compound dose, in multiplexed assays in 96-well plates using CellTiter-Fluor to determine cell viability, then Bright-Glo to determine luciferase expression. The values for H2 and S2 were used as replicates to calculate IC50s and to assess cell viability.
For CMV-luc and viability charts, the fitted lines are second-order polynomials. Means and SD are shown.

As for `CC[C@@H](CO)Nc1nc(NCc2ccccc2)c2ncn(C(C)C)c2n1` [Roscovitine], the pIC50 was 5.44.
